Our source for the binding signal values is publication PMC7819943, “Rice protein-binding microarrays: a tool to detect cis-acting elements near promoter regions in rice”.

The other results are listed elsewhere or left out.

The target of this assay is T1, OsSMF1 (Oryza sativa, UniProt Q6ZLB0 1-436).
T1 sequence: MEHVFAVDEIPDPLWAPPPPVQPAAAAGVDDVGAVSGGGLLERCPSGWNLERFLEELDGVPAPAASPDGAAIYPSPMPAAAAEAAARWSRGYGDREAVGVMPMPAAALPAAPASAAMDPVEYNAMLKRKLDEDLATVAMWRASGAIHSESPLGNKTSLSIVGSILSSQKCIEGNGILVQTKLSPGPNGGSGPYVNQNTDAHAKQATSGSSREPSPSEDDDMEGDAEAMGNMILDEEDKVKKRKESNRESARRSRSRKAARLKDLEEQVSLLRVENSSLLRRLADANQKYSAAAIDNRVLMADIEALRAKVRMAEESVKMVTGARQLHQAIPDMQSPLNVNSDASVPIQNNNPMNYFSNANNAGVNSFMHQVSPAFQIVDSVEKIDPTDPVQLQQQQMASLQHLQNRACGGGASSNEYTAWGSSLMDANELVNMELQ
The assay can be described thus: protein-binding microarray (RPBM); PBS, 2% BSA, 51.3 ng/ul salmon testes DNA, 50 uM zinc acetate, 200 nM TF, 25 C, 1 h; high values mean tight binding. The settings on record: protein: recombinant; tags: N-terminal polyhistidine and DsRed monomer fusion (pET32a); chain copies: 2; label: CyDye5-dUTP incorporated in the synthesized complementary strand; 3' TTTTT single-stranded linker to array surface; dsDNA, one strand shown. In short, it runs like this: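 An Axon 4000B scanner gave the binding signal as per-feature fluorescence intensity in arbitrary units. This followed washing of a custom Agilent array that had been incubated for 1 h at 25 °C with 200 nM protein in PBS, 2% BSA, salmon testes DNA and 50 µM zinc acetate. The proteins were transcription factors fused at the N-terminus to polyhistidine and DsRed, expressed in E. coli BL21-CodonPlus and purified on Ni–NTA.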
As for “TTTTCTGCTCCGCGCCATCTCCTCCTCTGCTCGCCTCTGCCGGAGTCACCTAGTGCAG”, the binding signal was 3480 fluorescence intensity (a.u.).

With “GTGTGCCACGTGGGCAATTACGATAAGCGAAGCAAAGCGGCGGAGTCACCTAGTGCAG”, the binding signal was 24900 fluorescence intensity (a.u.).

For “TTGTTCGAGTTGGCTAGCTAGCCAACGTGGTGGGCGCACGCGGAGTCACCTAGTGCAG”, the binding signal was 4080 fluorescence intensity (a.u.).

As to “GCAGCTACCCAACCATCGCACCGCCACCATCGCCGGCACGCGGAGTCACCTAGTGCAG”, the binding signal is 4680 fluorescence intensity (a.u.).

“CTCCCTTTCCGATGGTCAACGTGACGTCAGCAGTGAGCTTCGGAGTCACCTAGTGCAG”: the binding signal was 21700 fluorescence intensity (a.u.).

Regarding “CACGCCAACGCCCAAGCCCACCAACCCAAGTTGAGTCGTGCGGAGTCACCTAGTGCAG”, the binding signal was 3360 fluorescence intensity (a.u.).

“GTAGTGGACTGATTTAGGCCAATATTTTGAGAAAATATTACGGAGTCACCTAGTGCAG”: the binding signal is 16100 fluorescence intensity (a.u.).

With “CTCAAACCGGTGGCCCACAGGTCAGCCTCCCCATCCACCTCGGAGTCACCTAGTGCAG”, the binding signal was 4400 fluorescence intensity (a.u.).

For the sequence “ACAGGACATCCGACCTCAACACCCTTACAACCAATAAAAGCGGAGTCACCTAGTGCAG”, the binding signal was 31800 fluorescence intensity (a.u.).

Regarding “CAGGTGGGTCCCACGCTGACTCAGCTGTCACATAGACCAACGGAGTCACCTAGTGCAG”, the binding signal is 11300 fluorescence intensity (a.u.).

Regarding “GCCAAAACCAAAAGAGAGACTCCTCGCCTCGCCTCGCCTCCGGAGTCACCTAGTGCAG”, the binding signal was 3230 fluorescence intensity (a.u.).

“GTAGCAGGGATTGGAGACAGTGACTCTGCACTTCCTTTCACGGAGTCACCTAGTGCAG”: the binding signal is 4460 fluorescence intensity (a.u.).

For “ACACTGGTGATTGGTTTGAATGCTTGCTCACGAGTTGGGTCGGAGTCACCTAGTGCAG”, the binding signal was 4440 fluorescence intensity (a.u.).

As for “AGGAGGTTGACGACGGCGGCAGCAACGGCGGTGGCTCTCGCGGAGTCACCTAGTGCAG”, the binding signal is 3460 fluorescence intensity (a.u.).

For the sequence “CGGCTGGTGTAGCTCAGTTCGTACGTGTTCTGCCTTTATACGGAGTCACCTAGTGCAG”, the binding signal was 3610 fluorescence intensity (a.u.).

As to “TTGTTGTGTGCCCTACACGTGAGCTGGCTGATCAGGCTGCCGGAGTCACCTAGTGCAG”, the binding signal was 5570 fluorescence intensity (a.u.).

As to “CTCGAGCCCGCGGATGGCGCCCCATGGCGTGGCGGCGGAGCGGAGTCACCTAGTGCAG”, the binding signal is 3820 fluorescence intensity (a.u.).

With “CGTTGCTTGCCTTTGGCTTGTGAGTCGAGCTGAGCGAGTTCGGAGTCACCTAGTGCAG”, the binding signal was 3660 fluorescence intensity (a.u.).

Take “GCTTTTCATTTAATATCTGATAAAACTTACCAAAGAGGAACGGAGTCACCTAGTGCAG”: the binding signal was 12800 fluorescence intensity (a.u.).

Turning to “AGATCTATTAGCTAGCCACAGAAAACCATATGATCGTCAGCGGAGTCACCTAGTGCAG”, the binding signal is 3380 fluorescence intensity (a.u.).

As to “TTCCGGCGCCATCTCGAACGACACGAACTGGTGGCCCCAGCGGAGTCACCTAGTGCAG”, the binding signal is 3660 fluorescence intensity (a.u.).

“GGGGAGGCAAGGCGGGCAATGTGGTGGCAGGCTTGAGTGGCGGAGTCACCTAGTGCAG”: the binding signal is 3230 fluorescence intensity (a.u.).

Turning to “CGGGACGGCGCGCTTGCTGACTGCTCCTCCACTACTGGCACGGAGTCACCTAGTGCAG”, the binding signal was 3320 fluorescence intensity (a.u.).

Consider “GAGTATTTGGCATGGTTGTAGCGTTGGTGACCTGAGTCATCGGAGTCACCTAGTGCAG”, for which the binding signal was 7270 fluorescence intensity (a.u.).

Consider “CCCCTACTATTTTCTAGGCTAGGAAGCGTGCGATCTTTTCCGGAGTCACCTAGTGCAG”, for which the binding signal was 3240 fluorescence intensity (a.u.).

On to “GGACGCAGCACACGCAAGCAGTTATTGCCACGTCTATTGGCGGAGTCACCTAGTGCAG”, for which the binding signal is 6980 fluorescence intensity (a.u.).

Regarding “ATGCGTCCTGAATTGTACTCTTCAGCGGAGTCACTTCAGCCGGAGTCACCTAGTGCAG”, the binding signal is 3320 fluorescence intensity (a.u.).

With “CCCAACCACTGACGCCGCGCACGCCACGTCAACGTGGGGCCGGAGTCACCTAGTGCAG”, the binding signal is 26900 fluorescence intensity (a.u.).

Turning to “ATTCACTGGAGGTGGTGCATCAGCATCACCAAAGCTAGCACGGAGTCACCTAGTGCAG”, the binding signal was 3970 fluorescence intensity (a.u.).

With “ACCCTTCTCCTCTCTCCACGACATGCTCTGCTACCGTGAACGGAGTCACCTAGTGCAG”, the binding signal was 3530 fluorescence intensity (a.u.).

In the case of “TGACAGGTGGTCCCCGGAGAGCGGGTCGGGGCAGGCGAAGCGGAGTCACCTAGTGCAG”, the binding signal was 6120 fluorescence intensity (a.u.).

For “TTTATTGTTGGTACTGCTATTCTTAGGGCGTATGCTAAATCGGAGTCACCTAGTGCAG”, the binding signal is 21200 fluorescence intensity (a.u.).

Turning to “TCTTGCACATGATCTGTTCATCCTGTTTGTGTGCATAGTGCGGAGTCACCTAGTGCAG”, the binding signal is 5420 fluorescence intensity (a.u.).

On to “TGCACCTGCAACAAACTGAAACTAAACGGGAGTCAGCGTTCGGAGTCACCTAGTGCAG”, for which the binding signal is 3760 fluorescence intensity (a.u.).

Consider “TCTCTCTAGCTTGTCTATGTCACTGATCAGTGAAATCATTCGGAGTCACCTAGTGCAG”, for which the binding signal was 5340 fluorescence intensity (a.u.).

On to “CGGCGGCGGCGGCGGCGGCGGCGGAGGTGGTGTGGGTGGGCGGAGTCACCTAGTGCAG”, for which the binding signal is 3460 fluorescence intensity (a.u.).

In the case of “CCGCCGCCGCCGCCGCCACGTCGAATGGTTCTTCTCTCCACGGAGTCACCTAGTGCAG”, the binding signal is 10900 fluorescence intensity (a.u.).

Regarding “ACACAGATCTGCAACCAAAACAAATGCAACACTAAACACCCGGAGTCACCTAGTGCAG”, the binding signal is 26100 fluorescence intensity (a.u.).

In the case of “AATGCAAGGAAGAGGGTACCGTGTATATGTGGCTCTGTGCCGGAGTCACCTAGTGCAG”, the binding signal is 4120 fluorescence intensity (a.u.).

With “CGAGGTTCCAGTGCGTGGCCACGTCGTGGCGGCGCCTCATCGGAGTCACCTAGTGCAG”, the binding signal is 7510 fluorescence intensity (a.u.).

With “GACACGTACAAAGCCTGTAAACAAACGTGCCACGTCATATCGGAGTCACCTAGTGCAG”, the binding signal was 31400 fluorescence intensity (a.u.).

On to “TGTCTGTCAGTGTTCACTAAACTGCAAGCGTACAAGTGGACGGAGTCACCTAGTGCAG”, for which the binding signal was 3140 fluorescence intensity (a.u.).
